Data published in patent publication US5698141A, “Photochromic heterocyclic fused indenonaphthopyrans” (PPG Industries, Inc., priority 1997, dated 1997).

Key:
[1] = Photochromic response on an optical bench (sensitivity, ΔOD at saturation, bleach rate) of polymer test squares; conditions: for ΔOD@ SATURATION: UV exposure continued for 20 minutes; for ΔOD@ SATURATION / ΔOD/MIN SENSITIVITY: 1.5 times 10^-3 molal in polymer test square, 75° F. (23.9° C.); for ΔOD/MIN SENSITIVITY: first five seconds of UV exposure, expressed per minute; for Bleach Rate (T1/2): time for absorbance of activated form to reach one half the highest absorbance at room temperature (75° F., 23.9° C.) after removal of activating light
[2] = Lambda max (visible) of the activated form in a diethylene glycol bis(allyl carbonate) composition; conditions: wavelength of maximum absorption of the activated (colored) form in a diethylene glycol bis(allyl carbonate) composition

SMILES | ΔOD@ SATURATION [1] | ΔOD/MIN SENSITIVITY [1] | Bleach Rate (T1/2) [1] | LAMBDA MAX (VISIBLE) [2]
CCC1(O)c2ccccc2-c2c1c1c(c3c2ccc2oc4ccccc4c23)OC(c2ccc(OC)cc2)(c2ccc(OC)cc2)C=C1 (stereo not drawn) [Example 1, 3,3-di(4-methoxyphenyl)-16-hydroxy-16-ethyl-16H-benzofuro[2',3':7,8]indeno[2',3':3,4]naphtho[1,2-b]pyran] | 0.12 | 0.25 ΔOD/MIN | 23 s | 597 nm
COc1ccc(C2(c3ccc(OC)cc3)C=Cc3c4c(c5ccccc5c3O2)-c2ccc3oc5ccccc5c3c2C4O)cc1 (stereo not drawn) [Example 2, 3,3-di(4-methoxyphenyl)-16-hydroxy-16H-benzofuro[2",3":6',7']indeno[3',2':4,3]naphtho[1,2-b]pyran] | 0.26 | 0.19 ΔOD/MIN | 70 s | 574 nm
CCC1(O)c2c3c(c4ccccc4c2-c2ccc4oc5ccccc5c4c21)OC(c1ccc(OC)cc1)(c1ccc(OC)cc1)C=C3 (stereo not drawn) [Example 3, 3,3-di(4-methoxyphenyl)-16-hydroxy-16-ethyl-16H-benzofuro [2",3":6',7']indeno [3',2':4,3]naphtho [1,2-b]pyran] | 0.21 | 0.20 ΔOD/MIN | 48 s | 580 nm
